From paper PMC12040169 (PLOS Biology, 2025) come the findings set out here.

Some of the results follow.

The test relates to T1, CTL2-GFP (C. trachomatis L2/434/Bu, GFP-expressing).
T1 construct: L2/434/Bu, GFP-expressing
Further details: species or system HeLa; Intracellular C. trachomatis growth in HeLa cells, bulk GFP fluorescence relative to DMSO. To be noted: bulk GFP, single well; 28.5 h, 10 µM; inhibitor.
For the molecule `Cc1ccc(C2=CCN(CC(=O)NC3CCCC3)CC2)o1` [CBK283605], the “% of control remaining” value was determined as 129.797%. Next, `Nc1ncnc2c1nc1n2[C@@H]2O[C@H](C1)[C@H](O)C2O` (some centres unmarked) [CBK201224]: 139.937%.

For `CCN(CC)C(=O)c1ccc(NS(=O)(=O)Cc2ccccc2[N+](=O)[O-])cc1` [CBK034396], the “% of control remaining” value was 127.31%. As to `COc1ccc(CCCC(=O)Nc2ccccc2N2CCNCC2)cc1OC` [CBK028283T], the “% of control remaining” value stood at 81.9506%. Next, `O=C(OCCc1c[nH]c2ccccc12)N1CCOCC1` [CBK200415]: 101.171%. Next, `CC(C)n1c(=O)n(CC(=O)NC2CCCC2)c2cccnc21` [CBK283700]: 143.772%; `Cc1ccc(C2(C(=O)NCCCn3ccnc3C)CCOCC2)cc1` [CBK281588]: 137.933%. For `CCOC(=O)c1c(NC(=O)CSc2nnc(C)s2)sc2c1CCC2` [CBK263183], the “% of control remaining” value stood at 134.41%. Next, `O=C(O)c1ccc(CSc2nc(-c3ccccc3)cc(C(F)(F)F)n2)o1` [CBK269514]: 133.241%; `CNC(=O)C1(Cc2ccc(-c3ccccc3)cc2)CCN(C(=O)CC2CCCCC2)CC1` [CBK285763]: 90.1982%; `O=C(NCCc1c[nH]c2ccccc12)N1CCN(Cc2ccccc2)CC1` [CBK155646]: 152.417%.

As to `COCCN1C(=O)c2ccc(C(=O)Nc3cc(C(=O)O)cc(C(=O)O)c3)cc2C1=O` [CBK268444], the “% of control remaining” value is listed as 116.063%. As for `CN(C)c1ncc(-c2ccc(Cl)cc2)c(C2CCCN2C(=O)CN2CCCC2)n1` (centres unmarked) [CBK286037], the “% of control remaining” value is given as 136.275%. Next, `CC(=O)N1CCC[C@H]2NC(=O)CNC(=O)C3(C/C=C/C[C@H]21)CCN(CC(N)=O)CC3` [CBK292135]: 140.329%. Regarding `COc1ccccc1OCC(=O)NCc1ccc(-c2csnn2)cc1` [CBK149303], the “% of control remaining” value came out at 118.167%. In the case of `CCOC(=O)c1cc(-c2cccc(Cl)c2)oc1C` [CBK045775], the “% of control remaining” value came out at 157.8%. Next, `COc1ccc(Cl)cc1S(=O)(=O)N(C)CC(=O)O` [CBK269919]: 141.135%; `CCc1nc(CC(=O)NC(c2ccc(F)cc2)C2CCCO2)cs1` (centres unmarked) [CBK306336]: 86.1449%; `CC(=C\C(=O)O)/C(=C\c1ccc(Br)cc1)C(=O)O` [CBK278280N]: 100%. Next, `C=C1S/C(=N\c2cc(Cl)cc(Cl)c2)NC1(CC)CC` [CBK009484]: 77.3869%; `COc1ccc2c(c1)C=C(/C=C/C1=CCN(C)CC1)CO2` [CBK283818]: 165.7%. Next, `COC(=O)c1ccc(N2CCN(Cc3ccc(CO)o3)C(C)C2)cc1` (centres unmarked) [CBK305394]: 103.834%; `CC1(C)CCN(Cc2nnnn2-c2ccc(S(C)(=O)=O)cc2)C1` [CBK306179]: 115.884%; `O=C1NC(c2ccccc2)=NC1(NS(=O)(=O)c1ccccc1)C(F)(F)F` (centres unmarked) [CBK267474]: 137.022%. With `CCCC(=O)N1CCC(C(=O)Nc2ccccc2F)CC1` [CBK304346], the “% of control remaining” value is given as 134.583%. Regarding `CC(C)NC(=O)C1(Cc2ccccc2-c2ccncc2)CCOCC1` [CBK284786], the “% of control remaining” value was found to be 138.507%.

Regarding `CN1CCN(c2ccc([N+](=O)[O-])c(NCCCO)c2)CC1` [CBK261846C], the “% of control remaining” value is 100%. Next, `CC(C)c1cc(C(=O)N2CCCCCC2c2cnn(C)c2)no1` (centres unmarked) [CBK284971]: 82.964%; `CS(=O)(=O)c1ccc(CNC(=O)C2(c3ccccc3)CCCC2)cc1` [CBK161524]: 124.317%.

In the case of `COc1ccc(N2CCN(CCNC(=O)Nc3ccc(Cl)cc3)CC2)cc1` [CBK268725], the “% of control remaining” value was determined as 138.454%. Next, `Cn1cnc(C(=O)N2CC[C@H]3NC(=O)c4ccccc4OCCCCC[C@H]3C2)c1` [CBK292031]: 128.478%; `CN1CC(=O)N2CCOC(C2)c2cccc(n2)NC(=O)C/C=C/CC2(CCNCC2)C1=O` (centres unmarked) [CBK292053]: 127.609%; `Cc1cccnc1NS(=O)(=O)c1cccs1` [CBK299775]: 185.309%.

With `CN(C)c1cccc(Oc2nc3c(c(=O)n(C)c(=O)n3C)n2C)c1` [CBK270109], the “% of control remaining” value amounted to 139.359%.

For the molecule `CCc1c(C)nc2ccccc2c1SC[C@H](NC(C)=O)C(=O)O` [CBK153459T], the “% of control remaining” value is listed as 112.187%.

For the molecule `CCS(=O)(=O)c1ccc2cc(C(=O)O)[nH]c2c1` [CBK286951], the “% of control remaining” value came to 112.208%. Next, `O=C(O)C1C2C=CC(O2)C1C(=O)Nc1ccc2c(c1)OCO2` (centres unmarked) [CBK265475]: 92.7004%; `CNC(=O)N(O)C1N(NC(=O)Nc2ccccc2)C(=S)SC1(C)C` (centres unmarked) [CBK261005]: 114.817%. Next, `Cc1csc2ncc(C(=O)Nc3ccccc3C(F)(F)F)c(=O)n12` [CBK287456]: 105.333%; `O=c1c2ccccc2nc(CSc2ncnc3[nH]cnc23)n1-c1ccc(Cl)c(Cl)c1` [CBK217854]: 123.504%; `CCOc1ccc2[nH]c(=O)c(/C=C3\SC(=S)N(CCC(=O)O)C3=O)cc2c1` [CBK265213]: 100%. Next, `COc1nnc(-c2ccc(N3CCOCC3)c(NC(=O)COc3cccc(C)c3)c2)c2ccccc12` [CBK266207]: 149.599%; `Cn1c(SCC(=O)Nc2ccnc3ccccc23)nnc1-c1ccncc1` [CBK267867]: 80.7389%. With `COc1cc(OC)c(CN(C)CCN(C)C)cc1Br` [CBK021255], the “% of control remaining” value amounted to 102.082%. Next, `CCNC(=O)C1(Cc2ccccc2-c2ccccc2)CCN(C(=O)c2ccccc2)CC1` [CBK285700]: 98.7631%; `O=c1cc(O)c2c(=O)n(-c3ccccc3)c(-c3ccccc3)cc2o1` [CBK006116]: 108.795%; `CC1=C(C)CC(C(=O)NC(C)CCc2ccccc2)C(C(=O)O)C1` (centres unmarked) [CBK265452]: 100%. Turning to `Cc1ccc(S(=O)(=O)Nn2cnnc2)cc1` [CBK027263], the “% of control remaining” value turned out to be 147.982%.

In the case of `NC(=O)CN1C(=O)CO[C@H]2CN(Cc3ccccc3F)C[C@H]21` [CBK289693], the “% of control remaining” value amounted to 100.2%. For the molecule `O=C(NC(c1ccccc1)c1ccccn1)c1ccco1` (centres unmarked) [CBK144109], the “% of control remaining” value is 90.8313%.

With `Cc1nn(C(C)C)c(C)c1CN(Cc1ccccn1)Cc1ccco1` [CBK283221], the “% of control remaining” value worked out at 83.8324%. `O=C(CSCc1nc2ccccc2[nH]1)Nc1ccc2ccccc2c1` [CBK263262]: the “% of control remaining” value is 99.9535%. Next, `c1ccc2cc(-c3cc(Nc4ccc(N5CCOCC5)cc4)ncn3)ccc2c1` [CBK090929]: 204.733%; `Cc1ccc(S(=O)(=O)NCC(=O)O)c2nsnc12` [CBK261140]: 110.97%; `COc1ccc(OC)c(C(=O)N2CCNC(=O)C2Cc2ccccc2-c2ccc(F)cc2)c1` (centres unmarked) [CBK285829]: 126.259%. Next, `CC(C)(C)OC(=O)N1CCC2(CC1)NC(=O)c1cc(-c3cccnc3)ccc1O2` [CBK083517]: 79.7334%; `Cc1cc(C(=O)Nc2cc(-c3nc4ncccc4o3)ccc2Cl)ccc1[N+](=O)[O-]` [CBK268700]: 118.257%. Next, `COC(=O)Cn1c(=N)n(CCN2CCOCC2)c2ccccc21` [CBK262447B]: 107.75%; `Cc1cccc(C(=O)N2CCN(Cc3nc4ccccc4[nH]3)CC2)c1` [CBK304399]: 119.578%; `COCCN(Cc1cnn(C)c1)C(=O)Cc1ccccn1` [CBK306576]: 82.0918%.

On to `O=C(Nn1cnnc1)c1ccccc1CCc1ccccc1` [CBK268578], for which the “% of control remaining” value worked out at 130.561%. Next, `COC(=O)c1c(C)c(C(C)=O)n(C)c1C` [CBK012459]: 103.56%; `Cc1nc(C(=O)N(C)C(C)c2cc3ccccc3o2)nn1-c1ccc(F)cc1` (centres unmarked) [CBK296657]: 109.067%. Consider `Cn1ncc2c1CCCN(C(=O)Cc1ccc3c(c1)CCCO3)C2` [CBK282253], for which the “% of control remaining” value is recorded as 121.447%. Next, `CNC(=O)c1ccc(-c2ccc(CNC(=O)CCc3cccc(Cl)c3)cc2)nc1C` [CBK286015]: 121.347%; `COc1ccc(OC)c(NC(=S)NCCN2CCOCC2)c1` [CBK264927]: 117.489%. Next, `Nc1ccc(C(=O)Oc2ccc(Oc3ccccc3)cc2)cc1` [CBK083570]: 125.906%; `O=C(NC(Cc1ccccc1)C(=O)O)c1ccc(Cl)cc1` (centres unmarked) [CBK264677]: 122.258%; `Cc1cccc2sc(NC(=O)C3COc4ccccc4O3)nc12` (centres unmarked) [CBK287367]: 69.4898%. Next, `CS(=O)(=O)N/N=C/c1ccc(Cl)cc1Cl` [CBK026420]: 118.393%. Take `CCC(=O)Nc1ccc(-c2csc(N3CCC(C)CC3)n2)cc1` [CBK306490]: the “% of control remaining” value is 115.547%.

Turning to `CC1=NN(c2ccc(S(=O)(=O)O)cc2)C(=O)/C1=C/C=C/c1c(C)nn(-c2ccc(S(=O)(=O)O)cc2)c1O` [CBK278317K], the “% of control remaining” value worked out at 100.603%.

Take `COc1ccc(CNC(N)=O)cc1` [CBK013588]: the “% of control remaining” value amounted to 141.236%. Next, `O=C1N[C@H]2CCCN(C(=O)c3cncs3)[C@H]2CCCCCOc2ccccc21` [CBK292106]: 101.798%; `Cc1ccc(S(=O)(=O)N2CCC3(CC2)OCCO3)cc1Cl` [CBK043731]: 98.4698%.

In the case of `CC(C)NC(=O)[C@H]1O[C@H](CCN2CCN(c3ccc(F)cc3)CC2)CC[C@@H]1O` [CBK288721], the “% of control remaining” value was found to be 115.173%.

Consider `CC(=O)c1ccc(-n2ncc(-c3ccc(F)cc3)n2)cc1` [CBK112889], for which the “% of control remaining” value is on record as 100%. Next, `OC(CNC1CCN(Cc2ccccc2)CC1)COc1ccc2c(c1)OCO2` (centres unmarked) [CBK074645]: 109.281%; `O=c1oc(-c2ccoc2)nn1Cc1ccccc1F` [CBK283726]: 139.475%. Next, `OC(CNCCc1ccccc1)COc1c(Br)cccc1Br` (centres unmarked) [CBK003071]: 100.606%.
